Data as given in PubChem BioAssay AID504744 (Drosophila RNAi Screening Center, 2011)
Assay: 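Identify dsRNAs that increase or decrease phospho-dAkt after insulin treatment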 (primary screen). Cells: Drosophila Kc167 cells. Knock-down reagent: long dsRNA against Drosophila genes, 250 ng dsRNA per well of a 384-well plate. Duration: 3 days of knock-down, then overnight serum-free starvation before stimulation. Challenge: bovine insulin at 387 nM for 10 minutes after 12 h without serum. Detection: 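In-cell antibody fluorescence for phospho-dAkt in each well over DNA-dye signal, with log2 residuals expressed as z-scores adjusted for cell count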. Hit rule: 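Hit in the insulin screen when the two-replicate mean z-score is more extreme than plus or minus 2.5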.
In all, the deposit lists about 23,000 reagents; shown is a random part of those that have a named target and a result. Of all reagents, 98 (0.43%) were called active. 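Only hit calls are given; the phospho-dAkt signals, z-scores and hit direction were not deposited.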 Reagents against one gene are numbered here. Names joined by + are all predicted targets of the reagent.

With knock-down of CG10809, the record shows inactive. With knock-down of CG12589 the results were inactive. CG18536 scored inactive. Grip163 gave inactive. After knock-down of unc80, the screen gave inactive. With knock-down of CG30350, the record shows inactive.

For Corp the deposit lists inactive. fl(2)d gave inactive. Creld gave inactive. Knock-down of Tsp66A + CG42661 + CG42660 resulted in: inactive. Jhbp7 gave inactive. Depletion of CG18210 (retired record) #1 gave: inactive.

Against CG18210 (retired record) #2, the entry reads inactive. PIG-N showed inactive. With knock-down of CG32655, the screen gave inactive. With knock-down of CG13131, the screen gave inactive. Against Nak, the values are inactive. Depletion of ND-B17 resulted in: inactive.

Knock-down of abs gave: inactive. Knock-down of Oatp58Da came out at: inactive. Knock-down of Efhc1.1 came out at: inactive. For CR14033, the values are inactive. For Cerk, the values are inactive. CG13029 showed inactive.

Against CG12115, the entry reads inactive. Flad2 showed inactive. mthl1 gave inactive. For Act42A, the entry reads inactive. For CG31125, the values are inactive. Silencing of CG6788 resulted in: inactive.

Depletion of CG3184 resulted in: inactive. Piezo showed inactive. org-1 gave inactive. For EbpII #1, the values are inactive. Against EbpII #2 the deposit lists inactive. CG32276 gave inactive.

Depletion of CG5515 came out at: inactive. Silencing of CG8668 came out at: inactive. Against Cyp6a18, the values are inactive. After knock-down of cn, the record shows inactive. Silencing of Rip11 came out at: inactive. Knock-down of su(r) came out at: inactive.

Knock-down of Aprt gave: inactive. Silencing of CG1542 resulted in: inactive. After knock-down of Pcyt1, the record shows inactive. For CG3085 the deposit lists inactive. pelo showed inactive. After knock-down of Or92a, the record shows inactive.

Knock-down of CG2145 came out at: inactive. With knock-down of CG13031, the record shows inactive. For CR33294, the entry reads inactive. After knock-down of CG31715, the record shows inactive. With knock-down of CG14631 #1, the record shows inactive. With knock-down of CG14631 #2, the screen gave inactive.

Ir52b showed inactive. For CG42237 the deposit lists inactive. Against Kaz-m1 the deposit lists inactive.

Taken from above.
Result for Nak under “outcome”: inactive
Entry for CG1542 under “outcome”: inactive
Result for Cerk in “outcome”: inactive
